Some of the results follow.
compound: c1cn2cc(-c3ccc4cn[nH]c4c3)nc(Nc3ccc(N4CCOCC4)cc3)c2n1 [entospletinib]; experiment: log2 fold change, soluble protein after heating vs DMSO (PISA); higher = thermal stabilisation; K562 cells, 10 uM, 30 min; active = over 0.2 and 3.5 SD of the protein, either way, in both replicates (recomputed)
Method in brief: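 Quantification of soluble protein used TMTpro 16plex LC-MS/MS, with channel sums equalised. Samples were the supernatant after 21,000xg for 90 min of pooled aliquots from K562 cells (2×10^6 cells/mL) treated with 10 μM compound for 30 min, heated for 3 min over 48°C-58°C, and extracted in PBS with 0.5% NP-40 at 4°C. Values, from duplicates, describe thermal stability against control samples on a log2 fold-change scale.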

Amino acid sequences for entries named in this document (tags omitted). A change or cut given only in a name is not applied to a line headed by its entry.
UniProt Q9UJA5: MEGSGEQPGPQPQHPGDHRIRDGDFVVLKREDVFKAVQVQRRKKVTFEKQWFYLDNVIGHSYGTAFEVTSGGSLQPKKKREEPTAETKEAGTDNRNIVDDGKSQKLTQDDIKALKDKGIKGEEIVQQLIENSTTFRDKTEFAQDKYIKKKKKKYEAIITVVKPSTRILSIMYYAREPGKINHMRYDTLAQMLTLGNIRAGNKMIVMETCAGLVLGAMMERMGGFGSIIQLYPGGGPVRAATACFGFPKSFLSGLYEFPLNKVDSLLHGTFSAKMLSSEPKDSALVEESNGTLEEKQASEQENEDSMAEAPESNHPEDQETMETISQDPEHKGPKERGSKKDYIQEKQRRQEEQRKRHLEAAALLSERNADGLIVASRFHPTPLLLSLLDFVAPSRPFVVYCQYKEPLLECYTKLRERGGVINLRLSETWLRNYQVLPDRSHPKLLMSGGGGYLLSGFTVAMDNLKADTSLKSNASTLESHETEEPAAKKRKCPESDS
UniProt Q9H496: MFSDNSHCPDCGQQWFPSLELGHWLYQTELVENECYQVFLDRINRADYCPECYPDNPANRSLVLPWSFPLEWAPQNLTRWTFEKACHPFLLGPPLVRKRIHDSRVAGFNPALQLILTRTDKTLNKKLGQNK
UniProt Q15654: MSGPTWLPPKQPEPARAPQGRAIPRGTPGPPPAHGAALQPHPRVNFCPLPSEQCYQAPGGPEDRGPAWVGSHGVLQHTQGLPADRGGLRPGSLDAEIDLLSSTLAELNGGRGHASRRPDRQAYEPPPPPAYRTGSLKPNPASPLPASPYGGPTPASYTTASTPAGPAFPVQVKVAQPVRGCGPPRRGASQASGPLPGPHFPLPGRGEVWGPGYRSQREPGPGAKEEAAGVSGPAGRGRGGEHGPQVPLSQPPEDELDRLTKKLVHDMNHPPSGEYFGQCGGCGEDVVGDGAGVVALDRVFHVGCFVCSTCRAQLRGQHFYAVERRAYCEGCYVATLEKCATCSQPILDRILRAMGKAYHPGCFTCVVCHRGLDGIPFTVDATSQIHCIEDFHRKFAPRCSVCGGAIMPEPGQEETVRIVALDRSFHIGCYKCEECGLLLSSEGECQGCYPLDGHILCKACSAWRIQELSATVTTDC
UniProt Q9Y296, whole entry, looked up: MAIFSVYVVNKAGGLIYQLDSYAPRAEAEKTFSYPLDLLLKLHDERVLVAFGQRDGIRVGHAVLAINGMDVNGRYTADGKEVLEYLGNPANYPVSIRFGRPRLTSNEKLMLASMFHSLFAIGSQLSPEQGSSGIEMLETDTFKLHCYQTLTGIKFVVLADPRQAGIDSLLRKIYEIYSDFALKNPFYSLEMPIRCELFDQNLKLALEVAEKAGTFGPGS
UniProt Q9UKE5: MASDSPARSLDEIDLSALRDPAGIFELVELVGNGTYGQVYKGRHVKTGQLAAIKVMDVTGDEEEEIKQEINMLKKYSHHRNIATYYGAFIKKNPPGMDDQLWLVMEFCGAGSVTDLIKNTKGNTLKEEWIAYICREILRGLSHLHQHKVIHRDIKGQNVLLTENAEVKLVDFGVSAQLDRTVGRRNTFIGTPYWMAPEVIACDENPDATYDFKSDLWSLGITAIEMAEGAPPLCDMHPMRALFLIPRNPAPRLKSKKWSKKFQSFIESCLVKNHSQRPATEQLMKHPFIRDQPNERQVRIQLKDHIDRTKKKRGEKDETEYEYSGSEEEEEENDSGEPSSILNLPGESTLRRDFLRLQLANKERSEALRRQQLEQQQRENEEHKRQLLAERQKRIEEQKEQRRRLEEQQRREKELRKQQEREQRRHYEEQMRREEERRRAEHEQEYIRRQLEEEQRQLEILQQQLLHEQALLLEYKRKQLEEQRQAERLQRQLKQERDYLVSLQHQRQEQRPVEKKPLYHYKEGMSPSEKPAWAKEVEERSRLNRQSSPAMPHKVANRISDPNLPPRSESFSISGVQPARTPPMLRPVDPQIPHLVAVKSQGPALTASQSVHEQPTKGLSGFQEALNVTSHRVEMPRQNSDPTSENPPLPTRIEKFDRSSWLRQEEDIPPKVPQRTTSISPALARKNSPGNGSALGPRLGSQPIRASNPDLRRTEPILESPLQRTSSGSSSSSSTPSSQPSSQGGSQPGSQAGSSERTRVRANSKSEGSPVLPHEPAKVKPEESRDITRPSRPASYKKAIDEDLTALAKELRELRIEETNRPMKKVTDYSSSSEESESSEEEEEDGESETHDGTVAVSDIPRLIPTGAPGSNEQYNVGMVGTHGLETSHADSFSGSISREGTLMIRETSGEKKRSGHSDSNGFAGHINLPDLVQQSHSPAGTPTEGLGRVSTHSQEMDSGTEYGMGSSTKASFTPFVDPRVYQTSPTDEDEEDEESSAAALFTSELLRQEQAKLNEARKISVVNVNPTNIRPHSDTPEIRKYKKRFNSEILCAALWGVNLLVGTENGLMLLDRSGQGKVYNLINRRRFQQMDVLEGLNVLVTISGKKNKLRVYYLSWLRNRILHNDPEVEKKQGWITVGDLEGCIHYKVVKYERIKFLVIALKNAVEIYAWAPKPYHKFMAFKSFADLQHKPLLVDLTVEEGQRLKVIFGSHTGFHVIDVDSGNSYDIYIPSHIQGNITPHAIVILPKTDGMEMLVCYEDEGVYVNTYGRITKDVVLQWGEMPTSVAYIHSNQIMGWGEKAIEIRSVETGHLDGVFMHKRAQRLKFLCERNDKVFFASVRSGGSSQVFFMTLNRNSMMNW
UniProt O75157: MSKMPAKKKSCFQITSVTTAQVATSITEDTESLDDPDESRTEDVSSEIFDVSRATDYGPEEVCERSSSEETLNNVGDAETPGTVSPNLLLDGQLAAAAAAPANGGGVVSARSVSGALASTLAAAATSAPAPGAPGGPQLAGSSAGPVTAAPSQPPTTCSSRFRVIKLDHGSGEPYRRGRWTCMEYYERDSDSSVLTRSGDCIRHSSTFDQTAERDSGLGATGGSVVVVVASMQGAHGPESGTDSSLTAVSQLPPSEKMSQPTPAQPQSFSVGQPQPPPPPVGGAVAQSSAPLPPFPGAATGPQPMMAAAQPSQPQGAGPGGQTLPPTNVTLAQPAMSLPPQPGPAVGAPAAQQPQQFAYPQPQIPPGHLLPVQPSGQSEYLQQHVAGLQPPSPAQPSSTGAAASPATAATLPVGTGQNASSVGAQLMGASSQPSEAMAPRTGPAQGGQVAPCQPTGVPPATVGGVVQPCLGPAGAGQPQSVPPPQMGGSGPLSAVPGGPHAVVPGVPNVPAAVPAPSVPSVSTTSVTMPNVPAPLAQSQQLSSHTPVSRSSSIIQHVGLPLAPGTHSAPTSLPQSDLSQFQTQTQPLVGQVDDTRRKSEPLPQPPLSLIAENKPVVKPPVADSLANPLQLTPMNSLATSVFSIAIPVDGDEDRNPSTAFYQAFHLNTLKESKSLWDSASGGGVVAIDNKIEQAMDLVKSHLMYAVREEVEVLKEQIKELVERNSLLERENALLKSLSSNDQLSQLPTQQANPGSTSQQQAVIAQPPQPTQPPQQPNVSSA
UniProt O15164: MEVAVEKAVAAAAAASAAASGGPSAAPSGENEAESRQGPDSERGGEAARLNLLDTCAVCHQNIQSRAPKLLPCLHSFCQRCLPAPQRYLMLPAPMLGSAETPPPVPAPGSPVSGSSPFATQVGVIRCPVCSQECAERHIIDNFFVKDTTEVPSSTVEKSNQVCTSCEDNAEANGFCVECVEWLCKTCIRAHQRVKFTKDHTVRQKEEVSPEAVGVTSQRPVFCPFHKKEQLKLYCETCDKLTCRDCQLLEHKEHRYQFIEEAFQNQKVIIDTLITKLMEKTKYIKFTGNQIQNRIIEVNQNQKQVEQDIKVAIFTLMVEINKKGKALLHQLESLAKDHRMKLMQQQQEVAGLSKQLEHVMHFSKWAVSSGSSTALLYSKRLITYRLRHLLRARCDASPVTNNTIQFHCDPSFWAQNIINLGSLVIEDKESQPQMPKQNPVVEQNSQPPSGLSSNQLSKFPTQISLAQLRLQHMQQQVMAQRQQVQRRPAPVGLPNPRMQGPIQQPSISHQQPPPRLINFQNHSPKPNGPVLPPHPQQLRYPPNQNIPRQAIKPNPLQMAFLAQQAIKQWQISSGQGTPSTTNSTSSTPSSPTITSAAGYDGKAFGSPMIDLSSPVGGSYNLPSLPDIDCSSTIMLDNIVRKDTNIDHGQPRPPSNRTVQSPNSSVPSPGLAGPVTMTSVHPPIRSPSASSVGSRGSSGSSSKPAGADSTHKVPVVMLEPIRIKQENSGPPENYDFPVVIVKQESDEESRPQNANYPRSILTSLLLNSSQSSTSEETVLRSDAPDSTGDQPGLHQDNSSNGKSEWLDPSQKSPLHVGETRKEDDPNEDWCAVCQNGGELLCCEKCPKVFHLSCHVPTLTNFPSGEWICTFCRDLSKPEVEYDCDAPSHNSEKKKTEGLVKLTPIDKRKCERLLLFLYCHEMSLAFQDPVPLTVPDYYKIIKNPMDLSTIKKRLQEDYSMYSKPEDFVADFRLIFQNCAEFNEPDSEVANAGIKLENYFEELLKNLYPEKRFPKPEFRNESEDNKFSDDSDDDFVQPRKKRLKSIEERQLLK
UniProt Q9H497: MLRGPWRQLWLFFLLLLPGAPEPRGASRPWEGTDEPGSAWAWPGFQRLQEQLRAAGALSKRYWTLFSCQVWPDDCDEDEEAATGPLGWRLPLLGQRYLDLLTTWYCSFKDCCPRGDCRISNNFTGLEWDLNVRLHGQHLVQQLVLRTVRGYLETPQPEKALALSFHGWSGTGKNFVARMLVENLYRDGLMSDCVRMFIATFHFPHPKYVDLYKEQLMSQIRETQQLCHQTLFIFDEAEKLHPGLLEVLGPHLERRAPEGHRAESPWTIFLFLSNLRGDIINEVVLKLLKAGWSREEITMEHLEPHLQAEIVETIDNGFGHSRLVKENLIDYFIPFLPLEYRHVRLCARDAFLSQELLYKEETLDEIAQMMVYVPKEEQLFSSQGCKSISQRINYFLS
UniProt Q13049: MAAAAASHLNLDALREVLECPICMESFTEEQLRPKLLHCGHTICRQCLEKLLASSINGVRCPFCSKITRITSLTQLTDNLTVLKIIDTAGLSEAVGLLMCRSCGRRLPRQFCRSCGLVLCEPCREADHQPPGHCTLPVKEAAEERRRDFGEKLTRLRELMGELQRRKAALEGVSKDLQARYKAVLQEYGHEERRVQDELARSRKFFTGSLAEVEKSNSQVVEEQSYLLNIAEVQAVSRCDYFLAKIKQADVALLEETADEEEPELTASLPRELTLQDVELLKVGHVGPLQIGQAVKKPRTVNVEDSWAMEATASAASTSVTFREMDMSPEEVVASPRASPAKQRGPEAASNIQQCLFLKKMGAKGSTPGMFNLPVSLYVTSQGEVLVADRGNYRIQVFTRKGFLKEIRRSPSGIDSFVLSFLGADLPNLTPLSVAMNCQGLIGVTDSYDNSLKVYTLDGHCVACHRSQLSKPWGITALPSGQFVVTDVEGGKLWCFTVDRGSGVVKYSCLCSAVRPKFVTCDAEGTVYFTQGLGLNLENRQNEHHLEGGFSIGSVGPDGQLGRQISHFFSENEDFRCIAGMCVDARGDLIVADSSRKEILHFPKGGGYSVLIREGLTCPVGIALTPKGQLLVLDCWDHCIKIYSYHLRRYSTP
UniProt O75865, whole entry, looked up: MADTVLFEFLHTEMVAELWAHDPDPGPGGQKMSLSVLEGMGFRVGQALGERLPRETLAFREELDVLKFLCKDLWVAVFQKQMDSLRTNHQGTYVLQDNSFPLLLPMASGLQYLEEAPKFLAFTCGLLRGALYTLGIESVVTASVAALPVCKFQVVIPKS
UniProt O95985: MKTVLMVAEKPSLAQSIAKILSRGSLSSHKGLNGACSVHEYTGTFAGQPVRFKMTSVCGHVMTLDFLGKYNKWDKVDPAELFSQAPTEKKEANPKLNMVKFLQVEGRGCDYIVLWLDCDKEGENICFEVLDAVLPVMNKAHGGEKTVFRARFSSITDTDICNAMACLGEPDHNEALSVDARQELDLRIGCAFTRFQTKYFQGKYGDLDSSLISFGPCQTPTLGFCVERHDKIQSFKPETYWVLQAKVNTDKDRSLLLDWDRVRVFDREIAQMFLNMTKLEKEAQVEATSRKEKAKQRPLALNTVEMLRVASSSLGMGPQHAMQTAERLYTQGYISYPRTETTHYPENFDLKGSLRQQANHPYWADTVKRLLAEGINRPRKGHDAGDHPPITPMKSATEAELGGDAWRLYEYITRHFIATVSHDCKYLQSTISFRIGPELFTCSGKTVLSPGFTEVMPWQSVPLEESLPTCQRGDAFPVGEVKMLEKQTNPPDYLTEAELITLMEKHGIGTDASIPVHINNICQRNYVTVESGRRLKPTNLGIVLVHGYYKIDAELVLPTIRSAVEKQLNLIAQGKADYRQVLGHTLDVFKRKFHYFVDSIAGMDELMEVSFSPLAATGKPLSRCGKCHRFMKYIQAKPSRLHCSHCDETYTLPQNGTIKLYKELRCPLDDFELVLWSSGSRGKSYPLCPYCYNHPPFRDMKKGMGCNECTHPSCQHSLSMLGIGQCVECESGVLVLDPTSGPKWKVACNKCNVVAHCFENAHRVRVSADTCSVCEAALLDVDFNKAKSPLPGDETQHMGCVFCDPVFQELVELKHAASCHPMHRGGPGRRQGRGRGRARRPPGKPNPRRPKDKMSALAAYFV

log2 fold change, inactive:
TRMT6 (UniProt Q9UJA5) 0.138
TOR1AIP2 (UniProt Q9H496) -0.134
TRIP6 (UniProt Q15654) 0.018
TRIP11 (UniProt Q15643) 0.012
TRRAP (UniProt Q9Y4A5) -0.012
TNIP1 (UniProt Q15025) -0.072
TOR1AIP1 (UniProt Q5JTV8) 0.053
TRPV2 (UniProt Q9Y5S1) -0.01
TRAF4 (UniProt Q9BUZ4) 0.106
TRIAP1 (UniProt O43715) 0.08
TRIT1 (UniProt Q9H3H1) 0.237
TRAPPC4 (UniProt Q9Y296) 0.012
TNIK isoform 6 (UniProt Q9UKE5) -0.013
TSC22D2 (UniProt O75157) 0.079
TPT1 (UniProt P13693) 0.069
TRIM24 (UniProt O15164) 0.097
TOR3A (UniProt Q9H497) 0.001
TRAM2 (UniProt Q15035) -0.037
TRAPPC10 (UniProt P48553) 0.077
TRMT5 (UniProt Q32P41) -0.113
TRUB1 (UniProt Q8WWH5) -0.016
TRIM32 (UniProt Q13049) -0.027
TNIK isoform 3 (UniProt Q9UKE5) -0.018
TPM1 (UniProt H7BYY1) 0.02
TRAPPC6A isoform 2 (UniProt O75865) 0.06
TRMT61B (UniProt Q9BVS5) 0.028
TOX4 (UniProt O94842) 0.06
TOLLIP (UniProt Q9H0E2) -0.09
TOMM34 (UniProt Q15785) 0.02
TOP3B (UniProt O95985) 0.068
TSC22D1 (UniProt Q15714) -0.019
TRAF2 (UniProt Q12933) 0.013
TPRG1L (UniProt Q5T0D9) 0.031

2 records drawn at random from those above:
log2 fold change, inactive:
TRIAP1 (UniProt O43715) 0.08
TPM1 (UniProt H7BYY1) 0.02

Source: the supplement of paper PMC10849652
